# Measurements taken from article PMC12974487, “Inhibition of FicD-mediated AMPylation and deAMPylation by isoprenoid diphosphates” (Proceedings of the National Academy of Sciences of the …, 2026).
# These are yes or no findings as the source states them, for the method shown. Some results given as binding are weak or reduced against the parent protein; the word gives no strength.
# B1: wild-type human FicD, soluble ER luminal domain (residues 105 to 458) (domain or fragment, UniProt Q9BVA6 105-458)
# chain: EARAALNQALEMKRQGKREKAQKLFMHALKMDPDFVDALTEFGIFSEEDKDIIQADYLYTRALTISPYHEKALVNRDRTLPLVEEIDQRYFSIIDSKVKKVMSIPKGNSALRRVMEETYYHHIYHTVAIEGNTLTLSEIRHILETRYAVPGKSLEEQNEVIGMHAAMKYINTTLVSRIGSVTISDVLEIHRRVLGYVDPVEAGRFRTTQVLVGHHIPPHPQDVEKQMQEFVQWLNSEEAMNLHPVEFAALAHYKLVYIHPFIDGNGRTSRLLMNLILMQAGYPPITIRKEQRSDYYHVLEAANEGDVRPFIRFIAKCTETTLDTLLFATTEYSVALPEAQPNHSGFKETLPVKP
# Target: wild-type human FicD, soluble ER luminal domain (residues 105 to 458) (human) (UniProt Q9BVA6)
# Assay: SEC; elution volumes of the purified FicD constructs compared (SI Appendix, Fig. S1C); column and buffer not shown; both purified
binder,measurement,value
B1,binding,binds
